According to doi:10.1101/2020.03.03.971846:
Results are given in words; binding and its absence hold for the method and conditions named. For some of these results: Binding seen in cells or lysates may run through a third protein. Some results given as binding are weak or reduced against the parent protein; the word gives no strength.

Amino acid sequences for entries named in this document (tags omitted). A change or cut given only in a name is not applied to a line headed by its entry.
UniProt P21728: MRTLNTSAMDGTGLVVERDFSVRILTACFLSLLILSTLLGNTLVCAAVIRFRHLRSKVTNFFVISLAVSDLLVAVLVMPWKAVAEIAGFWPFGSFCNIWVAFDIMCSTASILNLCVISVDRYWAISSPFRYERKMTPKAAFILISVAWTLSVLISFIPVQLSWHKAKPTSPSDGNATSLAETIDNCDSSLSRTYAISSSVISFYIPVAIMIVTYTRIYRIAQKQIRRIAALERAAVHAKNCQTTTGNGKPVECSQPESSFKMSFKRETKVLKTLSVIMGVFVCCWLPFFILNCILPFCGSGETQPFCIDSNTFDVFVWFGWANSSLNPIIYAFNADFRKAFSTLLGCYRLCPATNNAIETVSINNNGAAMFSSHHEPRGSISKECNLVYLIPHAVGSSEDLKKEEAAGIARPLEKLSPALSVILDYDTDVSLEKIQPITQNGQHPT
UniProt P32120: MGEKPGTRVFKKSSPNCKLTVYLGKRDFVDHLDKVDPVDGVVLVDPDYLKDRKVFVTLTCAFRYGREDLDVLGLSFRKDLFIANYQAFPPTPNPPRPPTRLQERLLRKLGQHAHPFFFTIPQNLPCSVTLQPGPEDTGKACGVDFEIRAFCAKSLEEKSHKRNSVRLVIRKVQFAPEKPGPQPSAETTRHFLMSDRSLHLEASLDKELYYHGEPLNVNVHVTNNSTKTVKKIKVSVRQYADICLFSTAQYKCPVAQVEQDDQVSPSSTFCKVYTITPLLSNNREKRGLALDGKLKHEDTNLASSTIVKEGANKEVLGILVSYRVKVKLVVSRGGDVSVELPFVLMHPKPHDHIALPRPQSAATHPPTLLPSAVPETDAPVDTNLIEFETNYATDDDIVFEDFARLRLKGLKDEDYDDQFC

How the values were obtained:
[1] = biological target: D1R^T428A/S431A/T439A (Rluc8-tagged) (human) (UniProt P21728); assay: FRET or BRET
[2] = biological target: D1R^T428E/S431E/T439E (Rluc8-tagged) (human) (UniProt P21728); assay: FRET or BRET
[3] = biological target: D1R^E252-R266 peptide, native sequence (human) (UniProt P21728); assay: peptide or protein array
[4] = biological target: D1R^A238-E252 peptide, native sequence (human) (UniProt P21728); assay: peptide or protein array

binding [1]	binding [2]	binding [3]	binding [4]	Substance
binds	binds	–	–	Venus-arrestin-3 (from UniProt P32120 1-420)
–	–	binds weakly	binds weakly	arrestin-3 (from UniProt P32120 1-420)
